Measurements as given in PubChem BioAssay AID493014 (National Center for Advancing Translational Sciences (NCATS), 2011).
The other results are listed elsewhere or left out. Further columns of the screen follow, without active or inactive calls. Most of these compounds were active or inconclusive in the main read-out, so they are no random draw. The note in brackets gives the kind of curve behind each potency; many fits are weak.

Experiment: qHTS Assay to Find Inhibitors of Chronic Active B-Cell Receptor Signaling
Conditions: ABC-DLBCL IkBa-CBG/CBR reporter, luminescence ratio (green luciferase fused to IkBa over red control in TMD8 lymphoma cells), 4 h
Method in brief: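 Concentration-response series (up to 46 uM) were applied to TMD8 dual-reporter cells for 4 h at 37C with doxycycline. Green/red ratio, after filter-overlap correction, defined %Activity; red signal alone was normalised to basal cells and zero luminescence.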

[1] = measured here: CBR red luminescence, cell number
[2] = measured here: IkBa-CBG green luminescence

| Structure (SMILES) | AC50 [1] | AC50 [2] |
| --- | --- | --- |
| Cc1[nH]n(C(C)(C)C)c(=O)c1Sc1ccccc1 | 1.26 µM [falling, full curve, poor fit] |  |
| S=C(Nc1cccc(Cl)c1)Nc1cccc2cnccc12 | 29.1 µM [falling, single point] |  |
| NCCCn1c(C(=O)c2cc(Cl)c(N)c(Cl)c2)c2ccc(C(F)(F)F)cc2[n+]1[O-] | 10.3 µM [falling, partial curve] |  |
| O=C(/C=C/c1ccccc1)/C=C/c1ccccc1 | 11.2 µM [falling, partial curve] | 35.5 µM [rising, partial curve, poor fit] |
| Cc1cc(C)n(-c2ccc(C(=O)Nc3ccc(S(=O)(=O)NCc4ccco4)cc3)cc2)n1 | 10 µM [falling, partial curve, poor fit] |  |
| COc1ccc(Cl)cc1NC(=O)COC(=O)CCCN1C(=O)c2ccccc2C1=O | 32.6 µM [rising, single point] |  |
| Cc1ccc(NC(=O)COc2ccccc2C(=O)NCc2ccccc2)cc1 | 6.51 µM [rising, full curve, poor fit] |  |
| O=C(Oc1cccc2cccnc12)c1ccco1 |  | 29.1 µM [falling, single point] |
| COc1cc(NC(=O)c2[nH]cnc2C(N)=O)cc(C(=O)Nc2cccc(C(F)(F)F)c2)c1 | 7.31 µM [rising, partial curve, poor fit] |  |
| O=C(Oc1ccccc1)c1cccc2cccnc12 |  | 29.1 µM [falling, single point] |
| COc1ccc(CNC(=O)C[C@H]2C[C@H](C(=O)N(C(C)C)C(C)C)[C@@]3(C)c4[nH]c5cc(-c6ccco6)ccc5c4CCN3C2=O)cc1OC | 18.4 µM [falling, single point] |  |
| NC(=O)C1(C(N)=O)OC1c1ccc(Cl)c(Cl)c1 (stereo not drawn) | 3.16 µM [rising, partial curve, poor fit] |  |
| N#C/C(=C(/O)COc1ccccc1)c1nc2ccccc2s1 | 1.58 µM [falling, full curve] |  |
| Cc1cc(NC(=S)NC(=O)c2ccccc2)ccc1-c1cc2ccccc2oc1=O | 29.1 µM [rising, single point] |  |
| O=C(Nc1ccc(Cl)c(C(F)(F)F)c1)c1ccco1 | 23.1 µM [rising, single point] |  |
| CCOc1ccccc1NC(=O)CSc1nnc(-c2ccncc2)o1 | 29.1 µM [falling, single point] |  |
| Cc1ccc(SCC(=O)Nc2ccccc2C(=O)O)cc1 | 6.51 µM [falling, partial curve, poor fit] |  |
| COCc1c(C(=O)N2CCN(S(=O)(=O)c3ccccc3Cl)CC2)oc2ccccc12 | 25.9 µM [rising, single point] |  |
| CCCNC(=O)c1noc2c1CCc1ccccc1-2 | 18.4 µM [falling, single point] |  |
| COc1ccccc1NC(=O)CN1CCCCCC1 | 17.8 µM [falling, partial curve, poor fit] |  |
| COC(=O)c1cccnc1-n1c(=O)c2cccnc2n(CC(=O)Nc2ccc(Br)cc2)c1=O | 10 µM [rising, partial curve, poor fit] |  |

| Structure (SMILES) | AC50 [1] | AC50 [2] |
| --- | --- | --- |
| Cc1ccc(-n2nc(N)c3c(=O)oc(N(C)C)nc32)cc1 | 0.0891 µM [falling, full curve, poor fit] |  |
| CCOC(=O)Cc1cnc(NC(=O)CSc2nc(C)c(CC)c(=O)[nH]2)s1 | 11.2 µM [falling, partial curve, poor fit] |  |
| NC(=O)[C@H]1CC2(CC(c3cccc(NC(=O)[C@H]4CCC(=O)N4)c3)=NO2)CN1C(=O)c1cc([N+](=O)[O-])cc([N+](=O)[O-])c1 (stereo partly drawn) | 6.31 µM [falling, single point] |  |
| CC(Sc1nnnn1-c1ccccc1)C(=O)Nc1ccc(Cl)cn1 (stereo not drawn) |  | 4.61 µM [rising, partial curve, poor fit] |
| Cc1ccc(C(NC(=O)N2CCCC2)C(Cl)(Cl)Cl)cc1F (stereo not drawn) | 11.2 µM [rising, partial curve, poor fit] |  |
| NC(=O)c1cc2ccccc2oc1=NCc1ccccc1 | 14.1 µM [falling, single point] |  |
| CCCCN(Cc1ccccc1)S(=O)(=O)c1ccc2[nH]c(=O)oc2c1 | 20 µM [falling, partial curve, poor fit] |  |
| O=C(O)c1cc([N+](=O)[O-])ccc1NCCc1ccccc1 | 11.2 µM [falling, partial curve, poor fit] |  |
| Cc1oc(C(N)=O)cc1COc1ccc(C(N)=O)cc1 | 35.5 µM [rising, single point] |  |
| Cc1cc(C)c2cc(C=O)c(Cl)nc2c1 | 10 µM [rising, partial curve] | 3.55 µM [falling, full curve] |
| COc1ccc(N(Cc2cc(=O)[nH]c3ccccc23)C(=O)c2ccco2)cc1 | 20 µM [falling, single point] |  |
| N#Cc1cc2cc3c(cc2nc1NCCNC(=S)NCCCN1CCOCC1)OCO3 | 7.94 µM [falling, single point] |  |
| O=C1c2ccccc2C(=O)N1CCSc1ccccc1 | 1.16 µM [rising, full curve, poor fit] |  |
| CCOc1cc(CNc2ccc(N3CCCCC3)cc2)cc(Br)c1OCC(=O)NC(C)(C)C | 18.4 µM [falling, partial curve] | 32.6 µM [rising, partial curve, poor fit] |
| Cc1onc(-c2ccccc2)c1C(=O)Nc1ncc([N+](=O)[O-])s1 | 11.2 µM [falling, single point] |  |
| CCCc1[nH]nc2c1C(c1ccccc1OC)C(C#N)=C(N)O2 (stereo not drawn) | 10 µM [falling, partial curve, poor fit] |  |
| Cc1ccc(S(=O)(=O)N2CCN(S(=O)(=O)c3c(C)n[nH]c3C)CC2)cc1C | 3.66 µM [rising, partial curve, poor fit] |  |
| COc1ccc(NC2CCCN(C(=O)c3cccc(N4CCNC4=O)c3)C2)cc1 (stereo not drawn) | 8.91 µM [rising, partial curve, poor fit] |  |
| Cc1cc(C)nc(N/N=C/c2ccccc2OCc2ccc(Cl)cc2)n1 | 1.84 µM [rising, partial curve] |  |
| O=C(Cn1cc2c(n1)CCCC2)Nc1cc(-c2cccc(Cl)c2)no1 | 6.51 µM [rising, partial curve, poor fit] |  |
| O=C(CSc1nnc(-c2ccccc2)c(-c2ccccc2)n1)NCCc1ccccc1 | 15.8 µM [falling, single point] |  |

| Structure (SMILES) | AC50 [1] | AC50 [2] |
| --- | --- | --- |
| Cc1ncoc1C(=O)NC1CCCc2c1cnn2-c1ccc(C(C)(C)C)cc1 (stereo not drawn) | 25.1 µM [falling, single point] |  |
| COc1ccc(-c2noc(CCC(=O)N3CCN(c4ccccc4Cl)CC3)n2)cc1 | 7.31 µM [rising, partial curve, poor fit] | 8.2 µM [falling, partial curve, poor fit] |
| COc1ccccc1NC(=O)Nc1nnc(CC(=O)Nc2ccccc2)s1 | 3.16 µM [falling, full curve] |  |
| Cc1ccc(C(=O)N2CCN3C(=O)c4ccccc4C23c2ccccc2)cc1 (stereo not drawn) | 7.94 µM [falling, partial curve] |  |
| COc1ccc(C)cc1NC(=S)N1CC(C)OC(C)C1 (stereo not drawn) | 7.08 µM [rising, partial curve, poor fit] |  |
| Cc1ccc(S(=O)(=O)Nc2ccc3c(c2)n(C)c(=O)n3C)c(C)c1 | 25.1 µM [rising, single point] |  |
| O=C(NC(=S)Nn1cnnc1)c1cccc(Br)c1 | 6.51 µM [rising, single point] |  |
| O=C(/C=C/Nc1ccc(Br)cc1F)c1ccco1 | 10 µM [falling, single point] |  |
| COc1ccc(CCNC(=O)CSc2nnnn2C)cc1OC | 25.1 µM [rising, single point] |  |
| O=C(Nc1nc2ccccc2c(=O)s1)c1ccco1 | 20 µM [falling, single point] |  |
| CN(CC(=O)Nc1ccncc1)S(=O)(=O)c1ccccc1 | 6.51 µM [rising, single point] |  |
| CC(=O)C1=C(O)C(=O)N(c2ccc(C)cc2)C1c1ccccn1 (stereo not drawn) | 29.1 µM [rising, single point] |  |
| O=C(OCc1cc(=O)n2ccsc2n1)c1ccc(O)cc1O | 0.517 µM [rising, full curve] |  |
| Cn1c(=O)c(C(=O)NNC(=O)c2ccccc2F)c(O)c2ccccc21 | 1.12 µM [falling, full curve, poor fit] |  |
| CN1CCN(C(=S)NC(=O)/C=C/c2cccs2)CC1 | 0.501 µM [rising, full curve, poor fit] |  |
| Cc1ccc2c(c1)N(CC(=O)N1CCC(C)CC1)C(=O)c1cccnc1O2 | 15.8 µM [rising, single point] |  |
| C=CC[C@H](CC(=O)N(CCO)Cc1ccccc1)C(=O)N[C@H](COC(=O)[C@@H](CC=C)Cc1ccc(F)cc1)Cc1c[nH]c2ccccc12 | 29.1 µM [falling, single point] |  |
| C=C(C)CSc1nc2nc(C)c(Br)cc2[nH]1 | 16.4 µM [falling, single point] |  |
| COC(CNC(=O)c1ccc2c(c1)ncn2-c1cccc(C)c1)OC | 0.112 µM [rising, full curve, poor fit] |  |
| O=C1NC2(C=Cc3c(ccc4ccccc34)O2)Oc2ccccc21 (stereo not drawn) | 4.47 µM [rising, partial curve, poor fit] |  |
| CCn1c2ccccc2c2cc(NC(=O)c3cc(OC)cc(OC)c3)ccc21 | 3.26 µM [rising, full curve, poor fit] | 3.26 µM [falling, full curve] |

Look-ups from the results shown:
Under AC50 [1], Cc1ccc2c(c1)N(CC(=O)N1CCC(C)CC1)C(=O)c1cccnc1O2 has 15.8 µM [rising, single point]
Under AC50 [1], Cc1ccc(S(=O)(=O)Nc2ccc3c(c2)n(C)c(=O)n3C)c(C)c1 has 25.1 µM [rising, single point]
Under AC50 [1], COc1ccc(-c2noc(CCC(=O)N3CCN(c4ccccc4Cl)CC3)n2)cc1 has 7.31 µM [rising, partial curve, poor fit]
